From paper PMC7083940
These are yes or no findings as the source states them, for the method shown. Binding can be weak; no strength is given. Sequences can lack the tags named with a protein.

By UniProt entry, the sequences of proteins in these tests, tags left out. Where a name states a change or a piece, a line headed by the entry shows the natural chain unless it says otherwise.
UniProt Q8NQL2: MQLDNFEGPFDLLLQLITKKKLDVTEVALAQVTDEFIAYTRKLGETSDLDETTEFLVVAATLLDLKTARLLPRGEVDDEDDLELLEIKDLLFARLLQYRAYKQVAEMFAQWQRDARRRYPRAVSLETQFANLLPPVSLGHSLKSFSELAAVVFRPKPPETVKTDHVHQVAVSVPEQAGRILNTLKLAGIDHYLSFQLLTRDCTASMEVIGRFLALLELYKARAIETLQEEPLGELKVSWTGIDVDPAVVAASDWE

Target: T1, SMC, bacterial two-hybrid fusion (Corynebacterium glutamicum) (UniProt Q8NNW5)
T1 sequence: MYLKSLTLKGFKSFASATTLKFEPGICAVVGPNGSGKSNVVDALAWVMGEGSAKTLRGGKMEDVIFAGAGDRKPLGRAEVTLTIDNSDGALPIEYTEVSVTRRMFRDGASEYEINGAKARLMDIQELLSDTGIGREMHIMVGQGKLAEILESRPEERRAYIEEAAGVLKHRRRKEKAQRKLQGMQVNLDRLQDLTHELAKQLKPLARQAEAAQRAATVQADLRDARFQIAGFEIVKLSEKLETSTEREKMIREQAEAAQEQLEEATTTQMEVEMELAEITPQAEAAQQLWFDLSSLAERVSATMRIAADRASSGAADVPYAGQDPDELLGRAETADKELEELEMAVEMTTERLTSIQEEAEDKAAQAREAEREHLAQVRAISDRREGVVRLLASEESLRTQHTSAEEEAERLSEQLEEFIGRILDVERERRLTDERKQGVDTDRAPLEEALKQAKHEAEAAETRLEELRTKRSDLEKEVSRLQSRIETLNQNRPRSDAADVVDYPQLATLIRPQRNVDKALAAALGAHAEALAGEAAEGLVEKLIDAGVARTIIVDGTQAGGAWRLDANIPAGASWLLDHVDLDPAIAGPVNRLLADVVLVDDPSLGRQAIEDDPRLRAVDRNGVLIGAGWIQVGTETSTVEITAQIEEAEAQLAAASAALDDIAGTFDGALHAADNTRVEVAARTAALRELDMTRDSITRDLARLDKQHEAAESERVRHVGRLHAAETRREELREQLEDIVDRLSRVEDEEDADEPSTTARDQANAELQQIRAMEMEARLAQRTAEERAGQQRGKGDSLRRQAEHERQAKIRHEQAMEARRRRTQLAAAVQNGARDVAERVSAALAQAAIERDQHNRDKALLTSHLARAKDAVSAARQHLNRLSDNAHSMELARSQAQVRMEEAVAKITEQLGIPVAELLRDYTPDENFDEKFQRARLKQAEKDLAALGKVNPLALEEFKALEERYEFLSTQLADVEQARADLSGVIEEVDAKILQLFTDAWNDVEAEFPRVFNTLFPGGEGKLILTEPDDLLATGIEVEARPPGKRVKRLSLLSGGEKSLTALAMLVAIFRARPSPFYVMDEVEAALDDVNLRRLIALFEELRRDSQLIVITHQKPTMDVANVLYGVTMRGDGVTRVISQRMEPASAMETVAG
Assay: two-hybrid; bacterial two-hybrid with adenylate cyclase fragments T18 and T25 in E. coli BTH101, 30 °C; blue-white screening and β-galactosidase assays; all C- and N-terminal combinations of hybrid proteins

| Substance | binding |
| --- | --- |
| ScpB, bacterial two-hybrid fusion (Corynebacterium glutamicum) | binds |
| ScpA, bacterial two-hybrid fusion (from UniProt Q8NQL2) | binds |
| ParB, bacterial two-hybrid fusion (Corynebacterium glutamicum) | no binding |
